Values from PubChem BioAssay AID1259289 (Sanger Institute, 2017).

Assay: 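Kinases that bowel cancer cells need to survive, with or without BYL719, cetuximab, trametinib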 (primary screen)
Cell system: human LS513 colorectal cancer cells
Reagents: siRNA pool against human genes
Conditions: anchor drug BYL719 at 1 µM, cetuximab at 5 µg/ml or trametinib at 10 nM, or DMSO vehicle alone; exposure time not given
Detection: 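Survival versus non-targeting pool for each arm averaged over replicates, robust z-score in the arm with DMSO only, and synergy scores for BYL719, cetuximab or trametinib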
Scale: robust z-score, siRNA alone (DMSO): higher = more viable cells; strongly negative means essential; viability with DMSO vs control: higher = more viable cells; synergy score with BYL719: higher = stronger combined killing with BYL719
Hit rule: 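a gene counts as active if its DMSO-only robust z-score falls under -3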
Meaning of the calls: active = essential (knock-down alone); inactive = not essential
The whole screen tested 794 reagents; below is a random part of them. 16 of all reagents (2%) were called active. 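Active marks cell loss from silencing alone; drug synergy shows only in the synergy scores, not the calls.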 No viability above 1 is reported: the scale is capped. Not all columns of the deposit are shown. Not given: the amount of reagent, the time to read-out.

gene knocked down | robust z-score, siRNA alone (DMSO) | viability with DMSO vs control (fraction of control) | synergy score with BYL719 | activity call
NTRK3 | 0.561 | 1 | -0.0461 | inactive
ERBB2 | 0.561 | 1 | -0.0418 | inactive
PRPS2 | 0.561 | 1 | -0.134 | inactive
ELF3 | -0.476 | 0.853 | -0.0632 | inactive
EPHA4 | -0.187 | 0.894 | 0.0898 | inactive
PRKD1 | 0.561 | 1 | 0.0809 | inactive
PRKCH | -0.452 | 0.856 | 0.12 | inactive
MARK2 | 0.561 | 1 | -0.134 | inactive
TLK1 | -1.46 | 0.714 | 0.0304 | inactive
NUP98 | -2.42 | 0.577 | -0.0996 | inactive
CDKL3 | 0.561 | 1 | -0.134 | inactive
EPHB1 | 0.561 | 1 | -0.11 | inactive
N4BP2 | 0.561 | 1 | -0.129 | inactive
STK36 | 0.561 | 1 | -0.0902 | inactive
BMPR2 | -1.09 | 0.765 | -0.0155 | inactive
UCK1 | 0.561 | 1 | -0.107 | inactive
PFKP | 0.0712 | 0.93 | -0.0568 | inactive
NME1 | 0.561 | 1 | -0.134 | inactive
SPHK2 | 0.561 | 1 | 0.0753 | inactive
NR4A2 | -0.69 | 0.822 | 0.202 | inactive
CDK6 | -1.21 | 0.748 | 0.0678 | inactive
RIOK1 | -1.57 | 0.698 | -0.17 | inactive
PKN2 | 0.561 | 1 | -0.126 | inactive
CDK5R1 | 0.561 | 1 | -0.0905 | inactive
EPHB2 | 0.561 | 1 | -0.134 | inactive
DCLK3 | 0.561 | 1 | -0.0519 | inactive
MATK | 0.561 | 1 | -0.123 | inactive
GRK4 | 0.136 | 0.94 | -0.0649 | inactive
PIK3R4 | 0.561 | 1 | 0.089 | inactive
MED12 | 0.494 | 0.99 | 0.147 | inactive
RPS6KA1 | 0.561 | 1 | 0.0537 | inactive
TBCK | 0.561 | 1 | -0.122 | inactive
PINK1 | 0.186 | 0.947 | 0.292 | inactive
PKIA | -0.527 | 0.846 | 0.0544 | inactive
APC | -0.368 | 0.868 | 0.0571 | inactive
OBSCN | 0.561 | 1 | 0.0967 | inactive
BRSK2 | 0.561 | 1 | 0.0281 | inactive
FASTK | 0.561 | 1 | 0.147 | inactive
MAP3K5 | 0.561 | 1 | -0.0365 | inactive
SMAD4 | -0.918 | 0.79 | 0.105 | inactive
PDXK | 0.561 | 1 | -0.134 | inactive
RIOK3 | 0.561 | 1 | -0.0138 | inactive
ATP23 | 0.561 | 1 | -0.0232 | inactive
AKAP9 | -0.236 | 0.887 | -0.0663 | inactive
DDR2 | 0.561 | 1 | -0.134 | inactive
VRK1 | 0.561 | 1 | 0.121 | inactive
PIP5KL1 | 0.561 | 1 | -0.0197 | inactive
ELP1 | 0.561 | 1 | -0.134 | inactive
CDK5R2 | 0.561 | 1 | -0.0517 | inactive
PIP4K2C | 0.236 | 0.954 | -0.109 | inactive

3 entries from above, arranged by “synergy score with BYL719”, low to high.
gene knocked down | robust z-score, siRNA alone (DMSO) | viability with DMSO vs control (fraction of control) | synergy score with BYL719 | activity call
PDXK | 0.561 | 1 | -0.134 | inactive
MAP3K5 | 0.561 | 1 | -0.0365 | inactive
SMAD4 | -0.918 | 0.79 | 0.105 | inactive
